# Assay results published in publication PMC6925144, “A prospective compound screening contest identified broader inhibitors for Sirtuin 1” (Scientific Reports, 2019).
# Chains of the proteins cited; added tags and fusions are not shown. Residues count along the entry.
# UniProt Q96EB6, 2-747 limits assumed: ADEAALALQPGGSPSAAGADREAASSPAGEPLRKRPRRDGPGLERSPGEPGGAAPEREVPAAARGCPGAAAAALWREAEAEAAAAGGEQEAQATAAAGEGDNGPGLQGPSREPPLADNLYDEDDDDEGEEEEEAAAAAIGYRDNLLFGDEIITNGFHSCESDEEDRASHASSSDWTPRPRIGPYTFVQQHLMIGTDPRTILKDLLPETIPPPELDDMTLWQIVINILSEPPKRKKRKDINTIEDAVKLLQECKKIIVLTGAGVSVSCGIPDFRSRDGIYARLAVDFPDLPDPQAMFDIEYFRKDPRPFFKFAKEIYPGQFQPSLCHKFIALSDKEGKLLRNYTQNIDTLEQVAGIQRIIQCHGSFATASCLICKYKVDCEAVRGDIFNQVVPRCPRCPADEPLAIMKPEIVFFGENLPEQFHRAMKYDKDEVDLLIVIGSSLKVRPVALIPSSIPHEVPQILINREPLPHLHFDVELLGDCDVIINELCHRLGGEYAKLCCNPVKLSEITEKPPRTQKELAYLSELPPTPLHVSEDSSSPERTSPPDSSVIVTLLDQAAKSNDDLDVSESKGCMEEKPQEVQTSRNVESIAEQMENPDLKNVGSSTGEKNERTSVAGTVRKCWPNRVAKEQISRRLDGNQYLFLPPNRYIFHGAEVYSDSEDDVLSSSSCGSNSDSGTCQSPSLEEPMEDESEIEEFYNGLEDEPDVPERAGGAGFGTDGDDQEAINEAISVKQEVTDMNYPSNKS
# The full ranking holds about 3,200 compounds; the median of “TSA(without NAD+) / Primary screening (TSA) / delta Tm (K)” is about -0.07, and the highest 2% start at about 0.37. Some of the results follow.
# Target: NAD-dependent deacetylase Sirtuin 1 (human, UniProt Q96EB6)
# Test: primary screen, delta tm
# Design: single well (n = 1)
# Conditions: 10 µM
# Summary of the method: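 Thermal shift of Sirtuin 1 measured without NAD+, compound at 10 µM (n = 1); value is ΔTm, with hits defined as ΔTm > 0.45 K or < −1.5 K. Hits retested at 5, 10, 20 µM (n = 4) and counterscreened on bovine carbonic anhydrase and ABL1 SH2 domain.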
row,SMILES,TSA(without NAD+) / Primary screening (TSA) / delta Tm (K)
1,CCCCCCc1cc2c3c(c(=O)oc2cc1OCC(N)=O)CCC3,0.19 K
2,CN(C)c1ccc(CCC(=O)N2CCN(c3cnccn3)CC2)cc1,-0.14 K
3,Cc1nc2cc(NC(=O)CCNC(=O)/C=C/c3ccccc3)ccc2o1,-0.18 K
4,Cc1cc(C)n2nc(C(=O)Nc3cc(C(N)=O)cc(F)c3C)nc2n1,-0.18 K
5,C=CCn1c(SCC(=O)NCc2ccccc2F)nc2ccsc2c1=O,0.09 K
6,O=C(CN1CCN(c2ncnc3c2oc2ccccc23)CC1)c1cccs1,-0.17 K
7,OCC1CCN(c2ncnc3ccsc23)CC1,-0.14 K
8,Cc1nc(-c2cccnc2)nc(NCC2CCOC2)c1C (stereo not shown),-0.01 K
9,O=C1CC(c2ccccc2)c2ccc3ccccc3c2N1 (stereo not shown),-0.07 K
10,Cc1cc(S(=O)(=O)NCc2ccc(C(N)=O)cc2)sc1Cl,-0.11 K
11,O=C(Cc1n[nH]c(=O)c2ccccc12)Nc1ccc(N2CCN(Cc3ccccc3)CC2)cc1,-0.03 K
12,CC1=NN(c2ccccc2)C(=O)/C1=C\c1cn(-c2ccccc2)nc1-c1cc2ccccc2oc1=O,-0.02 K
13,Cc1sc2nc(CSc3ccccc3)nc(N3CCC(C(N)=O)CC3)c2c1C,0.52 K
14,O=C(Nc1cc(Br)c(F)cc1Cl)C1CCCO1 (stereo not shown),0.19 K
15,O=C(CN1CCN(C(=O)c2ccccc2Oc2ccccc2)CC1)Nc1ccccc1Cl,-0.18 K
16,CC(NS(=O)(=O)c1ccc(C(N)=O)cc1)c1cc(F)c(Cl)cc1Cl (stereo not shown),0.09 K
17,COc1ccc(OC)c(/C=C2/Oc3cc(O)ccc3C2=O)c1,-0.02 K
18,Cc1ccc(-c2sc(-c3ccccc3)nc2CC(=O)N/N=c2/sc3ccccc3n2C)cc1,-0.08 K
19,COc1cc(Br)c(/C=C2/Oc3cc(O)ccc3C2=O)cc1O,0.08 K
20,NC(=O)C1CCN(CC(=O)Nc2cc(C3CCCC3)nn2-c2ccccc2)CC1,-0.02 K
21,NC1=C(c2nc3ccccc3[nH]2)C(=O)CN1c1ccc(CC(=O)O)cc1,-0.14 K
22,CC(=O)c1ccc(F)cc1NC(=O)C1CCCOC1 (stereo not shown),-0.07 K
23,Cc1cc(C(=O)COC(=O)c2ccc(C(N)=O)cc2)c(C)n1CC1CCCO1 (stereo not shown),-0.04 K
24,N#CC(C(=O)CN1CCN(Cc2ccccc2)CC1)c1ccccc1 (stereo not shown),-0.02 K
25,O=C(NC(=S)Nc1ccc(-c2nc3ccccc3[nH]2)cc1)C12CC3CC(CC(C3)C1)C2,0.58 K

# Random excerpt: two records from the list, in no set order.
row,SMILES,TSA(without NAD+) / Primary screening (TSA) / delta Tm (K)
21,NC1=C(c2nc3ccccc3[nH]2)C(=O)CN1c1ccc(CC(=O)O)cc1,-0.14 K
14,O=C(Nc1cc(Br)c(F)cc1Cl)C1CCCO1 (stereo not shown),0.19 K
